Test results as given in the supplement of paper PMC12067093, “Discovery and optimisation of a covalent ligand for TRIM25 and its application to targeted protein ubiquitination” (Chemical Science, 2025).
The list shows a part of the results.

Chains of the proteins cited; added tags and fusions are not shown. Lines headed by an entry give the natural chain unless they say otherwise; changes in a name come on top.
UniProt Q13464: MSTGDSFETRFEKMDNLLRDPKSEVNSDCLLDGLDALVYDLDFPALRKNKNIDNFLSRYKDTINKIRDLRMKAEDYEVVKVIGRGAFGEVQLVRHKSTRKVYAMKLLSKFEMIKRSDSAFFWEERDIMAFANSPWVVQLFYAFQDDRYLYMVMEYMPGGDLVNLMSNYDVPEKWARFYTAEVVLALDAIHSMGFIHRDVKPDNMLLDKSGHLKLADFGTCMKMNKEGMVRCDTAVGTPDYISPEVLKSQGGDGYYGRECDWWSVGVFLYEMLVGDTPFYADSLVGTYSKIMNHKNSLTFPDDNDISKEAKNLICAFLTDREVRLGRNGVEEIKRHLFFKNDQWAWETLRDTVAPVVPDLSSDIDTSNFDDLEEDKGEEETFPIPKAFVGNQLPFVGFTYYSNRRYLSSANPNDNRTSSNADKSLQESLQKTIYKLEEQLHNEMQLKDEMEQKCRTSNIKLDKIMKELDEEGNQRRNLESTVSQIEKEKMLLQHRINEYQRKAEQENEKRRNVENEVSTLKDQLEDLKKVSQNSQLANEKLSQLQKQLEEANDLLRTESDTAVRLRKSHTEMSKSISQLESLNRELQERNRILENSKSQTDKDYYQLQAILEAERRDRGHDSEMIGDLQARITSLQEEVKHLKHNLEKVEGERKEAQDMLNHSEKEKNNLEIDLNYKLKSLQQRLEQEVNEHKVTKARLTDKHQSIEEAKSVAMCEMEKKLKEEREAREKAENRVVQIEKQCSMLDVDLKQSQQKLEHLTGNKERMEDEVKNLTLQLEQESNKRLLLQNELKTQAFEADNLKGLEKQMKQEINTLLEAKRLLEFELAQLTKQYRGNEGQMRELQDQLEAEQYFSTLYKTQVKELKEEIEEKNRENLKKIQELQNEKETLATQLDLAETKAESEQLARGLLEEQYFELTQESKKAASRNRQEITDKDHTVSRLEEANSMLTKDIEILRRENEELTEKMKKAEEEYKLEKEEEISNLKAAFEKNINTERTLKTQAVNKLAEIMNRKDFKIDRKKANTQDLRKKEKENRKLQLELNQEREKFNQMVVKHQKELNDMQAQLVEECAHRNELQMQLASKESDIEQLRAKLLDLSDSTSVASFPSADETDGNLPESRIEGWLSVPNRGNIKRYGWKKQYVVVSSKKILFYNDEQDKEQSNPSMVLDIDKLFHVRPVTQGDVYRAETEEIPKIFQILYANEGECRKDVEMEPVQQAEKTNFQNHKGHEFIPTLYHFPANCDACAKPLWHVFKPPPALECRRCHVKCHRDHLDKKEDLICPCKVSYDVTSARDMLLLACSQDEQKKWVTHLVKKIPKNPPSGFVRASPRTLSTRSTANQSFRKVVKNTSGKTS
UniProt Q9H4A4: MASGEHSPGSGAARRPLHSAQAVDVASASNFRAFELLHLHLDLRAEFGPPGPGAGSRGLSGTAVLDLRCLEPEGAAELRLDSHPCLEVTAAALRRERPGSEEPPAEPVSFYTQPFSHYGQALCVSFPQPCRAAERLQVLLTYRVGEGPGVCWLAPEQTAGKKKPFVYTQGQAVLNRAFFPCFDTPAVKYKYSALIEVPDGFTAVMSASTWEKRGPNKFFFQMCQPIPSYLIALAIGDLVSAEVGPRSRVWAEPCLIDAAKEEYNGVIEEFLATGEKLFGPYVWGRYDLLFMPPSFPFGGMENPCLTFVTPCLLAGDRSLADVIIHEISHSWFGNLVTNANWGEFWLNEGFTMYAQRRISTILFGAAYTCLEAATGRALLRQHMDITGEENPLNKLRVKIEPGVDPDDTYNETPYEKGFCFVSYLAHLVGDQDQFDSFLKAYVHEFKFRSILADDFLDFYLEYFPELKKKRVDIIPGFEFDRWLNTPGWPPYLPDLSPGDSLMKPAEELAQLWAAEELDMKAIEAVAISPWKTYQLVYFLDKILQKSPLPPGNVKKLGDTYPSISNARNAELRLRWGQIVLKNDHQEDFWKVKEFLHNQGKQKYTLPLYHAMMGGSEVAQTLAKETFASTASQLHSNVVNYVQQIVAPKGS
UniProt O75150, whole entry, looked up: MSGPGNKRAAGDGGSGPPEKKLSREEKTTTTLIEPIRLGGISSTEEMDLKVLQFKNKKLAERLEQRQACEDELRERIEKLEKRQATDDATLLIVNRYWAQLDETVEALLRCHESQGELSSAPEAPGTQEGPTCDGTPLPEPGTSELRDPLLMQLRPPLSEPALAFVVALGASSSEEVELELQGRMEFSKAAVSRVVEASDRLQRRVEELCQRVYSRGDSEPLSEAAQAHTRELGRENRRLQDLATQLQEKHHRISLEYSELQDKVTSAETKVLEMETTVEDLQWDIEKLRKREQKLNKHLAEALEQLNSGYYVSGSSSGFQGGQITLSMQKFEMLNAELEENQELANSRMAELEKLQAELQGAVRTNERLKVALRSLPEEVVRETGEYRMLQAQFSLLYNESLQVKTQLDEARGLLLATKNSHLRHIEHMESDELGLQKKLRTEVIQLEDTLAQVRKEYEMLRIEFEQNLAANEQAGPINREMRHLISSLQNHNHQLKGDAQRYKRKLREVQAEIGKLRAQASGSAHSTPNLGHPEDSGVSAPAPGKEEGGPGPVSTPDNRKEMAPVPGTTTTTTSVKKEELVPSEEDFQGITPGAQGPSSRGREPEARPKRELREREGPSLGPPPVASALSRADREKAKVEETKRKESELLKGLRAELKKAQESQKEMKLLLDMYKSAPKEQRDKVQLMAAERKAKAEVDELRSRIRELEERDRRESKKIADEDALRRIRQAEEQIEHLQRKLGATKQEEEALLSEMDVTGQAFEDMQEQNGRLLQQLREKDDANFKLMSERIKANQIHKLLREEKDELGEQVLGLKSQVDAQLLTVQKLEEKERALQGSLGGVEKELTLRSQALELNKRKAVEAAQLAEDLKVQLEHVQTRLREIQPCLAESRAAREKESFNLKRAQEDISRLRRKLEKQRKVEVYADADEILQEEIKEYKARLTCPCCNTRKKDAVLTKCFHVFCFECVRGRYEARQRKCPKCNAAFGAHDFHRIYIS
UniProt P35244: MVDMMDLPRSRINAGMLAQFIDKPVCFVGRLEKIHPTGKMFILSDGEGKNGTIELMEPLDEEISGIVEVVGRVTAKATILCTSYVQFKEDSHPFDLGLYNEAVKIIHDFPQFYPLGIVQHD
UniProt O75116: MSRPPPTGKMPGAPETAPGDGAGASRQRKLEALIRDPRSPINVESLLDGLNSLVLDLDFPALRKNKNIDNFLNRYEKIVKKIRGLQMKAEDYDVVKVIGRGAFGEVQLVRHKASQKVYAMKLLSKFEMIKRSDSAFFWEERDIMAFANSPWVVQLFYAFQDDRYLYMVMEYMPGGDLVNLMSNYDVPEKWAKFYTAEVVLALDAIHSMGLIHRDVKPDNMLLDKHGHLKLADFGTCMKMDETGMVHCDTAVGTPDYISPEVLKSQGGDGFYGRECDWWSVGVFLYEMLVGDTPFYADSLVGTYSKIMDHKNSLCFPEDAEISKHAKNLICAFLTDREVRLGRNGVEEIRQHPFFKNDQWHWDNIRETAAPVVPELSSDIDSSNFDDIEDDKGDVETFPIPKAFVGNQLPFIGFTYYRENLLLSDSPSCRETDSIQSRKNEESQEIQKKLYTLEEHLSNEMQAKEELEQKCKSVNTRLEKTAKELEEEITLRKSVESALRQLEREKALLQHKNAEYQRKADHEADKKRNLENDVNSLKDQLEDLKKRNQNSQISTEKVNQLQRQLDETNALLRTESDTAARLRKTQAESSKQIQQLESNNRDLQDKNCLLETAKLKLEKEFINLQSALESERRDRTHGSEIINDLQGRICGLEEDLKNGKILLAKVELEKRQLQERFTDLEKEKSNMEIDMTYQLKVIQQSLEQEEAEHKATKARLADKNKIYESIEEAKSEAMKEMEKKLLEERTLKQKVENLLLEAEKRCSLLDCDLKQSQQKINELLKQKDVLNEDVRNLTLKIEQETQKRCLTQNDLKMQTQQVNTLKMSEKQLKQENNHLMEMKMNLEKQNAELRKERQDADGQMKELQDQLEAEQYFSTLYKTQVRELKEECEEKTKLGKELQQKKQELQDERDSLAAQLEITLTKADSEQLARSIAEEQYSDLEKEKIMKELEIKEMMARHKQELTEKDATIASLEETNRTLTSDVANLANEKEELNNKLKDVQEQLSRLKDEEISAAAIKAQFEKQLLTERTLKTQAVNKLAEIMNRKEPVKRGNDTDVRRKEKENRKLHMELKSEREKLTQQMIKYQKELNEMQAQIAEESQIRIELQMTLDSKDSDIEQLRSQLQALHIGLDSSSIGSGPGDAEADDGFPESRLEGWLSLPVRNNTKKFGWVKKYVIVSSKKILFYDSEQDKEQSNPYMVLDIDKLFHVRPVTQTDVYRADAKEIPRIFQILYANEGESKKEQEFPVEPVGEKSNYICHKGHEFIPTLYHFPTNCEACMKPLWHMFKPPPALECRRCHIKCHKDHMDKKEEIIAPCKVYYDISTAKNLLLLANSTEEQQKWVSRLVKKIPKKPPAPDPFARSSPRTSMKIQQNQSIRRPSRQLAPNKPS
UniProt Q9H7B2: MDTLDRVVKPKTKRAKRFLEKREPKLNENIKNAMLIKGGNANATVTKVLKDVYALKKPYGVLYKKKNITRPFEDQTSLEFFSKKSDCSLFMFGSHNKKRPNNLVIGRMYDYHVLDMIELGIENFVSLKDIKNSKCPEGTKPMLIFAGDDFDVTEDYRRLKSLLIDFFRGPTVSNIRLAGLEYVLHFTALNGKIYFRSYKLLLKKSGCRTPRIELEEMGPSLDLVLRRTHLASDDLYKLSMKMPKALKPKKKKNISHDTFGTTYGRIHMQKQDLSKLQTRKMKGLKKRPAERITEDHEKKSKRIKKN
UniProt P13489: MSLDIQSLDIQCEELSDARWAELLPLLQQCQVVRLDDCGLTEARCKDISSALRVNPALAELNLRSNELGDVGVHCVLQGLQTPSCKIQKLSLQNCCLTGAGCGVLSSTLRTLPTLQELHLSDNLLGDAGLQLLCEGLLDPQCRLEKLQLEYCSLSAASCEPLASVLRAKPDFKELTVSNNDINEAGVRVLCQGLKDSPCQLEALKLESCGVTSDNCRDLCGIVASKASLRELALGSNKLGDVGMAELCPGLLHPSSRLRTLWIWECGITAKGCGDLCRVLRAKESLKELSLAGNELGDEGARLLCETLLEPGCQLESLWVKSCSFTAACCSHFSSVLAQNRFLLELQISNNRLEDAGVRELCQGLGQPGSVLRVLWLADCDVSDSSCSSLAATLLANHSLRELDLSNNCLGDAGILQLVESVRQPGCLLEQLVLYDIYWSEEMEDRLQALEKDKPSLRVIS
UniProt Q9UBF6, whole entry, looked up: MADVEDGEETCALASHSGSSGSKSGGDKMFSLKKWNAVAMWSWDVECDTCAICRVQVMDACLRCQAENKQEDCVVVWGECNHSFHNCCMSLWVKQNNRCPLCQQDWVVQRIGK
UniProt O75695: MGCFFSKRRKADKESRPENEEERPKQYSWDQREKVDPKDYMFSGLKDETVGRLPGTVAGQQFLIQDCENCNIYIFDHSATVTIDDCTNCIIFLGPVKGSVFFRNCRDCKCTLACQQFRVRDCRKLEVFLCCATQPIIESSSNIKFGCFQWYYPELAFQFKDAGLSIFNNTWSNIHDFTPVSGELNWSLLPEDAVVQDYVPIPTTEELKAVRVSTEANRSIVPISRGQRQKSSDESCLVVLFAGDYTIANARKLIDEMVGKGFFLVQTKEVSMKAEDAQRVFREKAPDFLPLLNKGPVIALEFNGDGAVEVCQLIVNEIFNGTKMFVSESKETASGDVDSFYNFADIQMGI
UniProt Q969K3: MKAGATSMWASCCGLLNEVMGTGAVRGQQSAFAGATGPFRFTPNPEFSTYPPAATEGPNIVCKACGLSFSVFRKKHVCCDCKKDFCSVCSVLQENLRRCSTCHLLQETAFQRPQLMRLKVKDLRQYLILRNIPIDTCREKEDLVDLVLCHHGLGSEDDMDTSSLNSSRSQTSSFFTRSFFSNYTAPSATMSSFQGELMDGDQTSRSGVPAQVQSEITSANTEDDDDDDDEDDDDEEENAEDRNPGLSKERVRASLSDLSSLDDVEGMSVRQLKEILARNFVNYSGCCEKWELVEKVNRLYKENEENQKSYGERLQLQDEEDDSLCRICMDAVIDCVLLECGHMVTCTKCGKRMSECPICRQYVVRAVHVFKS
UniProt O43148, whole entry, looked up: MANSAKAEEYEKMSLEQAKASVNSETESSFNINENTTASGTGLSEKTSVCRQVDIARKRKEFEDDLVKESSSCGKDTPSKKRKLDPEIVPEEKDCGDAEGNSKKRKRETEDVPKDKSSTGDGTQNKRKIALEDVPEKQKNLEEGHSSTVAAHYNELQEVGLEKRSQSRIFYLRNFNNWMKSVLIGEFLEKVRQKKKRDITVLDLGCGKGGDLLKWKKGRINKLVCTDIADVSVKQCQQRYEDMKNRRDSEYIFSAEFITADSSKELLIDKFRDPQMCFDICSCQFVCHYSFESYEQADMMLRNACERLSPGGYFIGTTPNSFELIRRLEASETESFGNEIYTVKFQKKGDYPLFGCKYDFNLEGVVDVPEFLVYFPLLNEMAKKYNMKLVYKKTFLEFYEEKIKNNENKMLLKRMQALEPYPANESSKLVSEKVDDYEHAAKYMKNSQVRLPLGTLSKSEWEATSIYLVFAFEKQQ

Compound: Cc1cc(ccc1-c1ccccc1)C(=O)N1CCCN(CC1)C(=O)CCl [compound 10]
Experiment: probe-labelled cysteine peptide fold change vs DMSO (competition) (log2 fold change); higher = less target engagement (more negative = stronger competition)
Details: THP-1, incubation time: 4 h
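Further: competitive profiling in live THP-1 cells: cysteine peptides tagged with an iodoacetamide desthiobiotin (IA-DTB) probe, intensity after compound treatment relative to DMSO-treated cells.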

| Target | probe-labelled cysteine peptide fold change (10 µM) | probe-labelled cysteine peptide fold change (50 µM) |
| --- | --- | --- |
| ROCK1_Q13464_1261_PLWHVFKPPPALECR (UniProt Q13464) | -0.00575 | 0.121 |
| RNPEP_Q9H4A4_85_LDSHPCLEVTAAALRR (UniProt Q9H4A4) | -0.158 | -0.281 |
| RNF40_O75150_69_QACEDELRER (UniProt O75150) | -0.0696 | -0.0416 |
| RPL7A_P62424_182_KMGVPYCIIK (UniProt P62424) | 0.0525 | -0.555 |
| RNF31_Q96EP0_901_HQFCSGCYNAFYAK (UniProt Q96EP0) | -0.00088 | -0.144 |
| RPS11_P62280_131_DVQIGDIVTVGECR (UniProt P62280) | 0.0549 | 0.235 |
| ROCK1_Q13464_1242+1245_GHEFIPTLYHFPANCDACAK (UniProt Q13464) | -0.117 | -0.193 |
| RNF213_Q63HN8_78_EEGGPCLFPGSDSWQENPEEPCSK (UniProt Q63HN8) | -0.07 | 0.0735 |
| RPA3_P35244_81_ATILCTSYVQFK (UniProt P35244) | 0.25 | 0.383 |
| RPL8_P62917_90_RTELFIAAEGIHTGQFVYCGKK (UniProt P62917) | -0.0864 | -0.389 |
| RNF214_Q8ND24_655_SSHAPATCK (UniProt Q8ND24) | 0.22 | -0.471 |
| RPL10A_P62906_66_FSVCVLGDQQHCDEAK (UniProt P62906) | 0.0904 | -0.354 |
| RPL11_P62913_25_LCLNICVGESGDR (UniProt P62913) | -0.0135 | 0.0297 |
| ROCK2_O75116_649_ICGLEEDLK (UniProt O75116) | 0.0103 | 0.0506 |
| RPF2_Q9H7B2_135_CPEGTK (UniProt Q9H7B2) | -0.136 | 0.605 |
| ROCK2_O75116_428_ENLLLSDSPSCR (UniProt O75116) | -0.267 | -0.605 |
| RPAP2_Q8IXW5_395_FLYGQNYASVCLKPEASLVKEELDEDDIISDPDSHFPAWR (UniProt Q8IXW5) | -0.0193 | 0.0537 |
| RNH1_P13489_248_LGDVGMAELCPGLLHPSSR (UniProt P13489) | 0.0552 | -0.0858 |
| RNF7_Q9UBF6_61_VQVMDACLR (UniProt Q9UBF6) | -0.0469 | -0.457 |
| RPL11_P62913_72_IAVHCTVR (UniProt P62913) | 0.103 | 0.0516 |
| RNF213_Q63HN8_3979_TLCECK (UniProt Q63HN8) | 0.0303 | -0.565 |
| RP2_O75695_131_LEVFLCCATQPIIESSSNIK (UniProt O75695) | 0.131 | 0.362 |

Copied from the list:
probe-labelled cysteine peptide fold change (50 µM) with RPL11_P62913_25_LCLNICVGESGDR (UniProt P62913) reads 0.0297
probe-labelled cysteine peptide fold change (50 µM) with RPL11_P62913_72_IAVHCTVR (UniProt P62913) reads 0.0516

More entries follow.

| Target | probe-labelled cysteine peptide fold change (10 µM) | probe-labelled cysteine peptide fold change (50 µM) |
| --- | --- | --- |
| RNF213_Q63HN8_1064_LCGTDEK (UniProt Q63HN8) | 0.0175 | 0.0992 |
| RNF34_Q969K3_340_ICMDAVIDCVLLECGHMVTCTK (UniProt Q969K3) | -0.0311 | -0.136 |
| RPL14_P50914_54_CMQLTDFILK (UniProt P50914) | 0.0152 | -0.101 |
| RPL7L1_Q6DKI1_207_HFQEISWFLCPFHLSVAR (UniProt Q6DKI1) | 0.055 | -0.0608 |
| RPA1_P27694_503_CDTEFPNFK (UniProt P27694) | -0.123 | -0.574 |
| RPL7_P18124_186_YGIICMEDLIHEIYTVGK (UniProt P18124) | -0.0141 | 0.174 |
| RPF2_Q9H7B2_87_SDCSLFMFGSHNK (UniProt Q9H7B2) | -0.0576 | 0.119 |
| RNH1_P13489_266_TLWIWECGITAK (UniProt P13489) | 0.0412 | -0.0514 |
| RPL27A_P46776_70_RNQSFCPTVNLDK (UniProt P46776) | -0.145 | -0.242 |
| RPL4_P36578_125_RYAICSALAASALPALVMSK (UniProt P36578) | -0.114 | -0.618 |
| RPL27A_P46776_70_NQSFCPTVNLDK (UniProt P46776) | -0.0209 | -0.192 |
| RPL11_P62913_21_LCLNICVGESGDR (UniProt P62913) | 0.0802 | 0.338 |
| RPRD1B_Q9NQG5_100_EADEGCK (UniProt Q9NQG5) | 0.0226 | -0.00306 |
| RNMT_O43148_73_ESSSCGK (UniProt O43148) | -0.293 | -0.271 |
| RPL4_P36578_208_RGPCIIYNEDNGIIK (UniProt P36578) | -0.185 | -0.108 |
| RPL7_P18124_186_YGIICMEDLIHEIYTVGKR (UniProt P18124) | -0.0216 | -0.273 |
| RP2_O75695_131_KLEVFLCCATQPIIESSSNIK (UniProt O75695) | 0.0489 | -0.00445 |
| RPAP3_Q9H6T3_519_QDVCQSYSEK (UniProt Q9H6T3) | -0.27 | -0.178 |
| RNF213_Q63HN8_1156_CVDSLLK (UniProt Q63HN8) | -0.0256 | 0.09 |
| ROCK1_Q13464_741_QCSMLDVDLK (UniProt Q13464) | 0.36 | -0.0367 |
| RNF40_O75150_971_CFHVFCFECVR (UniProt O75150) | 0.147 | 0.239 |
